Data reported in patent US6946544.
Results are given in words; binding and its absence hold for the method and conditions named. Binding seen in cells or lysates may run through a third protein. Some binding calls cover weakened binding; strength is not graded here. Sequences can lack the tags named with a protein.

Sequences of proteins named here, by UniProt entry; tags and fusion partners are left off.
UniProt Q13490: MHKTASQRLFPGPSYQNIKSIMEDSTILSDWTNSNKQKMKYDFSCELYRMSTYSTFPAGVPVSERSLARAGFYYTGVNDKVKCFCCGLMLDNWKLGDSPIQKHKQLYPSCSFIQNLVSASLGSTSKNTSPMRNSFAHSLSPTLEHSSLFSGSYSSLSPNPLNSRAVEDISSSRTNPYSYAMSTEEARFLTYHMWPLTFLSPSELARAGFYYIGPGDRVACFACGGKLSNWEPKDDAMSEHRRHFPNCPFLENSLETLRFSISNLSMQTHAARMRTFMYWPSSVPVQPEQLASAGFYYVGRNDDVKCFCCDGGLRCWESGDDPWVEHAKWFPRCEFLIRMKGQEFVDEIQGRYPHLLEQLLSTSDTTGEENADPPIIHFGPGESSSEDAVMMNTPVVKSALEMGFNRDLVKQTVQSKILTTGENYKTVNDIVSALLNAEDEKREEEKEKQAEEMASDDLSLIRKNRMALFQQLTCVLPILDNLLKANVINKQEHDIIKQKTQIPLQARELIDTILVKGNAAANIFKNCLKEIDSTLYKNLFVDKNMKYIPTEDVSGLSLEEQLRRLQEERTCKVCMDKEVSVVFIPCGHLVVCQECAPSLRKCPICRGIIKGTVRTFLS

How the values were obtained:
[1] = molecular target: myc-epitope tagged HIAP-2 (293T cell lysate) (human) (UniProt Q13490); assay: GST pull-down from 293T lysates on GST-XAF-1 beads, Western blot with anti-c-myc 9E10; indirect interactions not excluded
[2] = molecular target: T1, myc-epitope tagged TRAF2 (293T cell lysate) (UniProt Q12933); assay: as above
T1 sequence (looked up): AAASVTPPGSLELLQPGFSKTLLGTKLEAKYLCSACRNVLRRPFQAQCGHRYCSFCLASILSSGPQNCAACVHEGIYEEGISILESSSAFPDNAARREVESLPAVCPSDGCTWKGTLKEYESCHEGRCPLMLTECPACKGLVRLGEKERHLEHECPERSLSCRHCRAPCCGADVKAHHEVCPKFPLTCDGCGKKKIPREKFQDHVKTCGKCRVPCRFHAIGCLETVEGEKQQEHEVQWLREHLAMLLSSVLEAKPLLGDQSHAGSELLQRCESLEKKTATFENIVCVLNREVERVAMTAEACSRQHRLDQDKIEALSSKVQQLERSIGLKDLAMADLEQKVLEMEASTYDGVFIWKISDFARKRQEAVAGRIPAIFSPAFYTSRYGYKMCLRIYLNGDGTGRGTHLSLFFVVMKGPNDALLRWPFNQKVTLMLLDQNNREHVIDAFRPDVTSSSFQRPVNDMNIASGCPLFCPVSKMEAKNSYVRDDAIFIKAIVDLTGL

[3] = molecular target: T2, GST-XAF-1 fusion protein (Schistosoma japonicum; human) (UniProt Q6GPH4); assay: pull-down of 35S-labeled in vitro translated protein on GST-XAF-1 beads, cell-free, SDS-PAGE and autoradiography
T2 sequence: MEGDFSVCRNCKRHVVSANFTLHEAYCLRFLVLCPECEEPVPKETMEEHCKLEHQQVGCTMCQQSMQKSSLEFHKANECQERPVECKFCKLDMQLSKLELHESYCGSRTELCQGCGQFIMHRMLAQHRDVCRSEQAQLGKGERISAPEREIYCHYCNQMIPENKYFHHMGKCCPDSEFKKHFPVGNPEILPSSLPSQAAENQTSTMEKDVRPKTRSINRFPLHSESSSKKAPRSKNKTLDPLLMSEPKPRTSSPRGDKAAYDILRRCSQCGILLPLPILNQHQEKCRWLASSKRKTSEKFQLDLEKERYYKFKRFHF

B1: GST-XAF-1 fusion protein (protein, not shown: a dimerising Fc or GST)
chain: MEGDFSVCRNCKRHVVSANFTLHEAYCLRFLVLCPECEEPVPKETMEEHCKLEHQQVGCTMCQQSMQKSSLEFHKANECQERPVECKFCKLDMQLSKLELHESYCGSRTELCQGCGQFIMHRMLAQHRDVCRSEQAQLGKGERISAPEREIYCHYCNQMIPENKYFHHMGKCCPDSEFKKHFPVGNPEILPSSLPSQAAENQTSTMEKDVRPKTRSINRFPLHSESSSKKAPRSKNKTLDPLLMSEPKPRTSSPRGDKAAYDILRRCSQCGILLPLPILNQHQEKCRWLASSKRKTSEKFQLDLEKERYYKFKRFHF
In the case of B1, the binding [1] is reported as “binds” and the binding [2] is reported as “binds”.

B2: 35S-labeled in vitro translated TRAF2 (protein, UniProt Q12933 2-501, looked up, not shown: small tags and cut ends)
chain: AAASVTPPGSLELLQPGFSKTLLGTKLEAKYLCSACRNVLRRPFQAQCGHRYCSFCLASILSSGPQNCAACVHEGIYEEGISILESSSAFPDNAARREVESLPAVCPSDGCTWKGTLKEYESCHEGRCPLMLTECPACKGLVRLGEKERHLEHECPERSLSCRHCRAPCCGADVKAHHEVCPKFPLTCDGCGKKKIPREKFQDHVKTCGKCRVPCRFHAIGCLETVEGEKQQEHEVQWLREHLAMLLSSVLEAKPLLGDQSHAGSELLQRCESLEKKTATFENIVCVLNREVERVAMTAEACSRQHRLDQDKIEALSSKVQQLERSIGLKDLAMADLEQKVLEMEASTYDGVFIWKISDFARKRQEAVAGRIPAIFSPAFYTSRYGYKMCLRIYLNGDGTGRGTHLSLFFVVMKGPNDALLRWPFNQKVTLMLLDQNNREHVIDAFRPDVTSSSFQRPVNDMNIASGCPLFCPVSKMEAKNSYVRDDAIFIKAIVDLTGL
modifications: 35S labeled methionine
For B2, the binding [3] was “binds”.
